Source: patent publication US4033721A, “Analysis of gentian violet residue in tissue” (priority 1976, dated 1977)
Values joined by “and” are separate entries in the source; they are usually repeats but may differ in a detail not shown here. Identical values can stand only once. This continues a long series; more values of the same kind are listed elsewhere.

Assay: Spectrophotometric determination of gentian violet residue in livers of chickens fed gentian violet (Examples 2 to 24)
Type: in vivo
Details: chicken liver, feed 35 ppm for 56 days, 48 hours after final dose; 2880 min
Experimental: This example involves the spectrophotometrical determination of the gentian violet content (as a residue) of poultry tissue.
An acid alcohol solution was prepared by adding 20 ml of concentrated hydrochloric acid to 2,000 ml of 95 percent ethyl alcohol (denatured).
A gentian violet stock solution was prepared as follows: Using the Ainsworth chainomatic analytical balance, 0.104 gm of crystalline gentian violet (USP) was accurately weighed out and quantitatively transferred to a 1000 ml volumetric flask and q.s. to 1000 ml with distilled water. A magnetic stirring bar was inserted into the flask and the gentian violet solution was mixed on a magnetic mixer for 1 hour. This solution contained 100 ug of gentian violet per ml (100 ppm).
Gentian violet-acid alcohol standard solutions were prepared as follows: Five standard dilutions of gentian violet in acid alcohol were prepared and the absorbence (O.D.) for each dilution was determined. […]
The spectrophotometer was set at 590 mμ and zeroed using an acid alcohol blank. The absorbence of the 5 standard dilutions in the 13 mm cuvette was determined. The O.D. of the 1 ppm dilution in the 13 mm cuvette was recorded for use in calculation of the gentian violet recovery. (If method sensitivity below 0.1 ppm is desired, the O.D. of the 1 ppm standard in the 100 mm cell is recorded and the Beckman D.U. is used to make the determinations.) […]

Compound: CN(C)c1ccc(C(=C2C=CC(=[N+](C)C)C=C2)c2ccc(N(C)C)cc2)cc1 [gentian violet, hexamethylpararosaniline chloride]
- p.p.m. of Gentian Violet in liver: 0.36 p.p.m. and 0.24 p.p.m.
